# In the supplement of paper PMC12024529:
# Where a name gives a salt, the structure may show the parent alone. The list shows a part of the results. Baselines shift from plate to plate; read single values as rough.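 Wild-type or misfolding-prone missense mutant B-domain-deleted factor VIII, fused to Gaussia luciferase, is stably expressed in HEK293 lines. Each score is (mean triplicate-well luminescence minus DMSO mean) divided by DMSO standard deviation. Hits score at least 2; lower scores could stem from decreased secretion or poorer cell viability.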
# Key:
# HEK293 WT BDD-FVIII-Gluc = assay: secreted FVIII-Gluc luciferase Z-score vs DMSO control; higher = more FVIII-Gluc secretion; details: 5 µM; 24 h
# [1] = tested on: HEK293 p.N1941S BDD-FVIII-Gluc; assay: as above; details: 5 µM; 24 h
SMILES,secreted FVIII-Gluc luciferase Z-score (HEK293 WT BDD-FVIII-Gluc),secreted FVIII-Gluc luciferase Z-score [1]
CNC1CCCN(c2c(F)cc3c(=O)c(C(=O)O)cn(C4CC4)c3c2OC)C1 (stereo unspecified) [Balofloxacin],inactive: -2.52,inactive: -1.47
CC1(C)S[C@@H]2[C@H](NC(=O)[C@H](N)c3ccc(O)cc3)C(=O)N2[C@H]1C(=O)O [Amoxicillin sodium (Amox)],inactive: 1.22,inactive: 0.37
"CC[C@H]1OC(=O)[C@H](C)[C@@H](O[C@H]2C[C@@](C)(OC)[C@@H](O)[C@H](C)O2)[C@H](C)[C@@H](O[C@@H]2O[C@H](C)C[C@H](N(C)C)[C@H]2O)[C@](C)(OC)C[C@@H](C)C(=O)[C@H](C)[C@@H](O)[C@]1(C)O [Clarithromycin (Biaxin, Klacid)]",inactive: -0.216,inactive: -2.65
Cn1c(=O)c2c(ncn2CC2OCCO2)n(C)c1=O [Doxofylline],inactive: 1.45,inactive: -1.09
Cc1c(OCC(F)(F)F)ccnc1C[S@@+]([O-])c1nc2ccccc2[nH]1 [Dexlansoprazole],active: 3.38,inactive: -0.236
COc1ccc2c(c1)c(CC(=O)OCC(=O)O)c(C)n2C(=O)c1ccc(Cl)cc1 [Acemetacin (Emflex)],inactive: -1.74,inactive: -1.85
Clc1ccc(COC(Cn2ccnc2)c2ccc(Cl)cc2Cl)c(Cl)c1 (stereo unspecified) [Miconazole (Monistat)],inactive: -1.62,inactive: -2.08
CS(=O)(=O)Nc1ccc([N+](=O)[O-])cc1Oc1ccccc1 [Nimesulide],inactive: -0.296,inactive: -0.977
CC1CCc2c(N3CCC(O)CC3)c(F)cc3c(=O)c(C(=O)O)cn1c23 (stereo unspecified) [Nadifloxacin],inactive: 0.205,inactive: 0.000769
CN1CCC(=C2c3ccccc3CCc3cccnc32)CC1 [Azatadine dimaleate],inactive: -0.992,inactive: -0.51
Nc1cc(C(Cl)=C(Cl)Cl)c(S(N)(=O)=O)cc1S(N)(=O)=O [Clorsulon],inactive: -2.64,inactive: -2.4
NC(=O)N/N=C/c1ccc([N+](=O)[O-])o1 [Nitrofurazone (Nitrofural)],inactive: -2.32,inactive: 0.766
CS(=O)(=O)c1ccc([C@@H](O)[C@@H](CO)NC(=O)C(Cl)Cl)cc1 [Thiamphenicol (Thiophenicol)],inactive: 0.0322,inactive: -0.0743
COc1nc(N)nc2c1ncn2[C@@H]1O[C@H](CO)[C@@H](O)[C@@H]1O [Nelarabine (Arranon)],inactive: 1.69,inactive: 0.225
CCCC(CCC)C(=O)O[C@H]1C[C@H]2CC[C@@H](C1)[N+]2(C)C [Anisotropine Methylbromide],inactive: 0.25,inactive: 0.823
Cc1ccnc(NS(=O)(=O)c2ccc(N)cc2)n1 [Sulfamerazine],inactive: 0.882,inactive: -0.389
C[C@H](Cn1cnc2c(N)ncnc21)OCP(=O)(O)O [Tenofovir],inactive: -1.36,inactive: -0.198
Cc1c(Nc2ncccc2C(=O)O)cccc1C(F)(F)F [Flunixin meglumin],inactive: -1.3,inactive: -1.15
CC(=O)N[C@H]1[C@H]([C@H](O)[C@H](O)CO)OC(C(=O)O)=C[C@@H]1NC(=N)N [Zanamivir],inactive: -0.512,inactive: 0.622
CC[C@H]1OC(=O)[C@H](C)[C@@H](O[C@H]2C[C@@](C)(OC)[C@@H](O)[C@H](C)O2)[C@H](C)[C@@H](O[C@@H]2O[C@H](C)C[C@H](N(C)C)[C@H]2O)[C@](C)(O)C[C@@H](C)CN(C)[C@H](C)[C@@H](O)[C@]1(C)O [Azithromycin Dihydrate],inactive: -0.277,inactive: -0.448
CCN(CC)CCOCCOC(=O)C(CC)(CC)c1ccccc1 [Oxeladin Citrate],inactive: -2.72,inactive: -0.598
Nc1cccc2c1C(=O)N(C1CCC(=O)NC1=O)C2=O (stereo unspecified) [Pomalidomide],inactive: -1.99,inactive: -0.579
CN(C)[C@@H](CCOc1cccc2ccccc12)c1ccccc1 [Dapoxetine hydrochloride (Priligy)],inactive: -4.68,inactive: -3.09
O=C(CCCN1CCC(O)(c2ccc(Cl)cc2)CC1)c1ccc(F)cc1 [Haloperidol (Haldol)],inactive: -1.66,inactive: 0.282
CN1CCN2c3ccccc3Cc3ccccc3C2C1 (stereo unspecified) [Mianserin hydrochloride],inactive: -5.58,inactive: -0.256
O=c1[nH]c(=O)n([C@H]2C[C@H](O)[C@@H](CO)O2)cc1I [Idoxuridine],inactive: -0.929,inactive: -0.38
NS(=O)(=O)c1cc2c(cc1Cl)NC(C(Cl)Cl)NS2(=O)=O (stereo unspecified) [Trichlormethiazide (Achletin)],inactive: -0.515,inactive: 1.32

# Sorted by number of heavy atoms (low to high): some entries from above.
SMILES,secreted FVIII-Gluc luciferase Z-score (HEK293 WT BDD-FVIII-Gluc),secreted FVIII-Gluc luciferase Z-score [1]
O=c1[nH]c(=O)n([C@H]2C[C@H](O)[C@@H](CO)O2)cc1I [Idoxuridine],inactive: -0.929,inactive: -0.38
Cc1ccnc(NS(=O)(=O)c2ccc(N)cc2)n1 [Sulfamerazine],inactive: 0.882,inactive: -0.389
Cn1c(=O)c2c(ncn2CC2OCCO2)n(C)c1=O [Doxofylline],inactive: 1.45,inactive: -1.09
Nc1cc(C(Cl)=C(Cl)Cl)c(S(N)(=O)=O)cc1S(N)(=O)=O [Clorsulon],inactive: -2.64,inactive: -2.4
Cc1c(Nc2ncccc2C(=O)O)cccc1C(F)(F)F [Flunixin meglumin],inactive: -1.3,inactive: -1.15
CN1CCC(=C2c3ccccc3CCc3cccnc32)CC1 [Azatadine dimaleate],inactive: -0.992,inactive: -0.51
CN(C)[C@@H](CCOc1cccc2ccccc12)c1ccccc1 [Dapoxetine hydrochloride (Priligy)],inactive: -4.68,inactive: -3.09
Clc1ccc(COC(Cn2ccnc2)c2ccc(Cl)cc2Cl)c(Cl)c1 (stereo unspecified) [Miconazole (Monistat)],inactive: -1.62,inactive: -2.08
CC1CCc2c(N3CCC(O)CC3)c(F)cc3c(=O)c(C(=O)O)cn1c23 (stereo unspecified) [Nadifloxacin],inactive: 0.205,inactive: 0.000769
COc1ccc2c(c1)c(CC(=O)OCC(=O)O)c(C)n2C(=O)c1ccc(Cl)cc1 [Acemetacin (Emflex)],inactive: -1.74,inactive: -1.85

# (next part)

SMILES,secreted FVIII-Gluc luciferase Z-score (HEK293 WT BDD-FVIII-Gluc),secreted FVIII-Gluc luciferase Z-score [1]
Cc1cn([C@H]2C[C@H](N=[N+]=[N-])[C@@H](CO)O2)c(=O)[nH]c1=O [Zidovudine (Retrovir)],inactive: 0.537,inactive: 0.00589
NS(=O)(=O)c1cc2c(cc1Cl)NCNS2(=O)=O [Hydrochlorothiazide],inactive: -1.84,inactive: 1.37
C[C@]12CCC(=O)C=C1CC[C@@H]1[C@@H]2[C@@H](O)C[C@@]2(C)[C@H]1CC[C@]2(O)C(=O)CO [Hydrocortisone (Cortisol)],active: 4.12,active: 4.65
O=c1ccc2ccccc2o1 [Coumarin],inactive: 0.776,inactive: 0.796
Nc1nccs1 [Aminothiazole],inactive: -0.369,inactive: 1.02
O=C(O)Cc1ccccc1Nc1c(Cl)cccc1Cl [Diclofenac],inactive: -2.45,inactive: -2.85
Oc1cc(O)c(Cl)cn1 [Gimeracil],inactive: -1.64,inactive: -0.445
Nc1nc(N)c2nc(-c3ccccc3)c(N)nc2n1 [triamterene],inactive: 0.146,inactive: -0.212
Nc1nc(CC(=O)Nc2ccc(CCNC[C@H](O)c3ccccc3)cc2)cs1 [Mirabegron (YM178)],inactive: -0.676,inactive: 0.72
CN(CCOc1ccc(CC2SC(=O)NC2=O)cc1)c1ccccn1 (stereo unspecified) [Rosiglitazone maleate],inactive: 1.38,inactive: -1.55
Cc1ccc(S(=O)(=O)NC(=O)NN2CC3CCCC3C2)cc1 (stereo unspecified) [Gliclazide (Diamicron)],inactive: -0.8,inactive: -0.904
C[C@H](CCC(=O)O)[C@H]1CC[C@H]2[C@@H]3[C@H](O)C[C@@H]4C[C@H](O)CC[C@]4(C)[C@H]3CC[C@]12C [Chenodeoxycholic acid],inactive: -2.27,inactive: -0.614
CCC(=O)OCC(=O)[C@@]1(OC(=O)CC)[C@@H](C)C[C@H]2[C@@H]3CCC4=CC(=O)C=C[C@]4(C)[C@@]3(F)[C@@H](O)C[C@@]21C [Betamethasone Dipropionate],active: 7.63,active: 7.5
COc1cc(C)c(/C=C/C(C)=C/C=C/C(C)=C/C(=O)O)c(C)c1C [Acitretin],inactive: -11.1,inactive: 0.156
CC[C@H](C)C(=O)O[C@H]1C[C@H](O)C=C2C=C[C@H](C)[C@H](CC[C@@H](O)C[C@@H](O)CC(=O)O)[C@H]21 [Pravastatin sodium],inactive: -0.883,inactive: 0.18
CCOC(=O)C1=C(C)NC(C)=C(C(=O)OC)C1c1cccc(Cl)c1Cl (stereo unspecified) [Felodipine (Plendil)],inactive: -3.64,inactive: -1.36
COC(=O)Nc1nc2cc([S+]([O-])c3ccccc3)ccc2[nH]1 (stereo unspecified) [Oxfendazole],inactive: -3.5,inactive: -2.62
CC(=O)S[C@@H]1CC2=CC(=O)CC[C@]2(C)[C@H]2CC[C@@]3(C)[C@@H](CC[C@@]34CCC(=O)O4)[C@H]12 [Spironolactone],inactive: -1.6,inactive: -1.58
Cc1ncc([N+](=O)[O-])n1CCO [Metronidazole (Flagyl)],inactive: -0.209,inactive: 0.933
COc1cc([C@@H]2c3cc4c(cc3[C@@H](O[C@@H]3O[C@@H]5CO[C@@H](c6cccs6)O[C@H]5[C@H](O)[C@H]3O)[C@H]3COC(=O)[C@H]23)OCO4)cc(OC)c1O [Teniposide (Vumon)],inactive: -10.4,inactive: -6.15
CC1(C)Cc2c(-c3ccccc3)c(-c3ccc(Cl)cc3)c(CC(=O)O)n2C1 [Licofelone],inactive: 0.114,inactive: -1.44
CCc1c2c(nc3ccc(OC(=O)N4CCC(N5CCCCC5)CC4)cc13)-c1cc3c(c(=O)n1C2)COC(=O)[C@]3(O)CC [Irinotecan],inactive: -4.68,inactive: -12.5
Clc1ccc2nsnc2c1NC1=NCCN1 [Tizanidine HCl],inactive: -2.66,inactive: -1.24
COc1ccc2cc([C@H](C)C(=O)O)ccc2c1 [Naproxen (Aleve)],inactive: 0.921,inactive: 0.834
C[C@@H]1C[C@H]2[C@@H]3C[C@H](F)C4=CC(=O)C=C[C@]4(C)[C@@]3(F)[C@@H](O)C[C@]2(C)[C@@]1(O)C(=O)CO [Flumethasone],active: 15.8,active: 5.64
C[C@H]1COc2c(N3CCN(C)CC3)c(F)cc3c(=O)c(C(=O)O)cn1c23 [Levofloxacin (Levaquin)],inactive: -1.31,inactive: 1.38
